In patent US20100004248A1, “Use of a Nitric Oxide Synthase Modulator for the Treatment of Cardiac Indications” (priority 2005, published 2010):
Entries after “also recorded” stand apart in the source; their conditions may differ. At least one compound was matched to its structure with a doubt left.

How the values were obtained:
[1] = test system: C57/BL6 WT mice subjected to TAC pressure overload; assay: Transthoracic echocardiography in conscious TAC mice; format: in vivo, mouse; details: 9 weeks TAC
Description: (§1) Male NOS3 null mice (NOS3^−/−) and C57/BL6 WT controls (8-11 weeks, Jackson Labs, Bar Harbor, Me., USA) were used. Pressure overload was produced by transverse aorta constriction (TAC). Briefly, The aortic arch was isolated by entering the extrapleural space between the second and third rib, and afterwards the transverse aorta was isolated between the right and left carotid arteries. A 7-0 prolene suture ligature was tied around the transverse aorta against a 27-gauge needle to produce a 65-70% constriction after the removal of the needle. After closing the chest, animals were extubated, and a subcutaneous injection of morphine sulphate 0.2 mg, was administered before they returned to their cages. Animal's ventilatory and circulatory status was checked every 30 minutes during the first 2 hours. Sham-operated mice underwent the same operation except for aortic constriction. […] Animals were randomized to receive placebo or BH4 (120 mg/kg/d) for the next 5 weeks. At the end of the study, i.e. at 9 weeks, animal were sacrificed to receive tissue or underwent in vivo PV-loop analysis. […] Control mice were subject to sham operations, and animals were studied 3-9 weeks following surgery. An additional group of wild-type animals were subjected to TAC for 3 weeks while co-treated with oral tetrahydrobiopterin (BH4) (Sigma-Aldrich) (1 mg/g food) mixed in their rodent chow, providing 5 mg/day based on 4-6 g daily diet^8.
Two different BH4 treatment protocols are used. For experiments related to FIGS. 1-7, where prevention of cardiac indications is described BH4 is provided orally as a treatment starting 2 days after TAC surgery (once mice are again eating oral diet). For those figures related to treatment of established cardiac indications, FIGS. 8-23, BH4 is provided orally but this is delayed for 4 weeks to establish substantial cardiac hypertrophy, remodeling, and NOS-uncoupling. Then the treatment is provided for the remaining 5 week period.
For folate studies, C57/BL6 WT were treated with folate (10 mg/kg/day) or with placebo for a 9 week period during which time the hearts were exposed to TAC.
In vivo cardiac morphology was assessed by transthoracic echocardiography (Acuson Sequoia C256, 13 MHz transducer, Siemens) in conscious mice. M-mode left ventricular (LV) end-systolic and end-diastolic dimensions were averaged from 3-5 beats. Left ventricular ejection fraction (LVEF) and percent fractional shortening (% FS) were calculated as: LVEF=[(LVEDD)^3-(LVESD)^3]/(LVEDD)^3×100; % FS=(LVEDD−LVESD)/LVEDD×100. Wall thickness of lateral freewall and intraventricular septum were averaged. Studies and analysis were performed blinded to heart condition.

[2] = test system: reactive oxygen species; assay: Reactive oxygen species generation in TAC myocardium (luminol, lucigenin, DHE, DCF); format: in vivo, mouse
Experimental: Reactive oxygen species generation was examined by several independent methods. Superoxide production in left ventricular tissue homogenates was determined by luminol-enhanced chemiluminescence (EMD Biosciences). Flash frozen myocardium was homogenized in iced PBS buffer, centrifuged, and the precipitate re-suspended in assay buffer to a final concentration of 100 μM luminol following manufacturer's instructions. Phorbol-12-myristate-13-acetate or other oxidase stimulators were not used in the assay. Data were normalized by sample weight. In addition, fresh frozen left ventricular myocardium (8 μm slices) was incubated for 1 hour at 37° C. with florescent dyes 2′,7′-dichlorodihydro-fluorescein diacetate (DCF; Molecular Probes; 4 μM) (Invitrogen Corp.) reflecting hydrogen peroxide formation (DCF staining localizes principally to mitochondria within myocytes), dihydroethidium (DHE; Molecular Probes; 2 μM) which assesses O2^− formation (typically nuclear localization), and nitrotyrosine formation (polyclonal nitrotyrosine Ab, 1:100; Upstate), which can reflect formation of ONOO^−. Imaging was performed on a Zeiss inverted epifluorescence microscope attached to an argon-krypton laser confocal scanning microscope (UltraVIEW, Perkin Elmer Life Sciences, Inc.). […] Nitrotyrosine was also quantitatively assessed by ELISA assay (Oxis International).

[3] = test system: MMP-2 and MMP-9; assay: Gelatin zymography of TAC myocardium; format: in vivo, mouse; details: WT mice, TAC 3 weeks, oral co-treatment
[4] = test system: C57/BL6 WT mice subjected to TAC pressure overload; assay: In vivo hemodynamics, PV loop analysis, in TAC mice; design: species or system mouse
Description: as §1
Two different BH4 treatment protocols are used. For experiments related to FIGS. 1-7, where prevention of cardiac indications is described BH4 is provided orally as a treatment starting 2 days after TAC surgery (once mice are again eating oral diet). […]
In vivo left ventricular (LV) function was assessed by pressure-volume catheter^12,13. […] Absolute volume was calibrated, and pressure-volume data was measured at steady state and during transient reduction of venous return as reported^13

[5] = test system: C57/BL6 WT mice subjected to TAC pressure overload; assay: Body weight and heart weight in mice subjected to transverse aortic constriction (TAC); format: in vivo, mouse; details: 9 weeks TAC, delayed BH4
Description: as §1, with “An additional group of wild-type animals were subjected to TAC for 3 weeks while co-treated with oral tetrahydrobiopterin (BH4) (Sigma-Aldrich) (1 mg/g food) mixed in their rodent chow, providing 5 mg/day based on 4-6 g daily diet^8.” left out

[6] = test system: C57/BL6 WT mice subjected to TAC pressure overload; assay: Cardiac morphology and tissue histology (hypertrophy, myocyte size, interstitial fibrosis) in TAC mice; format: in vivo, mouse
[7] = BH4 week-4 through week-9, relative to untreated
[8] = delayed BH4, relative to untreated TAC hearts
[9] = WT mice, TAC 3 weeks, oral co-treatment
[10] = 9 weeks TAC, delayed BH4, PV loops
[11] = 9 weeks TAC, oral BH4 delayed 4 weeks then given 5 weeks (120 mg/kg/d)

C[C@H](O)[C@H](O)[C@H]1CNc2nc(N)[nH]c(=O)c2N1 [BH4, (6R)-5,6,7,8-tetrahydrobiopterin]
Ejection fraction [1, 7]: markedly enhanced | fractional shortening [1, 7]: markedly enhanced | Left ventricular mass ([1]; delayed BH4): reduced | diastolic wall thickening [1, 8]: reduced | left ventricular end-diastolic dimension [1, 8]: reduced | left ventricular end-systolic dimension [1, 8]: reduced | myocardial oxidative stress (luminol and lucigenin assay) ([2]; 9 weeks TAC, BH4 from 4 weeks until 9 weeks post-TAC): reduced | oxidative stress, superoxide by DHE staining ([2]; 9 weeks TAC, BH4 initiated at week 4, continued for 5 weeks): largely reversed | reactive oxygen species generation (luminol chemiluminescence, DHE, DCF) [2, 9]: markedly declined | gel lysis (gelatin zymography) [3]: marked reduction in gel lysis | heart volumes [4, 10]: essentially normal heart volumes | systolic function [4, 10]: improved systolic function | In vivo left ventricular systolic and diastolic function ([4]; WT mice, TAC 3 weeks, oral co-treatment, identical afterload increase): improved compared to untreated controls | measured heart weight [5]: reduced | interstitial fibrosis ([6]; 9 weeks TAC, BH4 initiated at 4 weeks, continued for 5 weeks): reduced to virtually normal levels | Myocyte size [6, 11]: markedly reduced; also recorded: reduction in myocyte size | cardiac hypertrophy [6, 11]: reversed | hypertrophic response to TAC [6, 9]: significantly blunted and morphologically concentric hypertrophic response
